Paper PMC8249393
No constants are given. Whether binding was seen depends on the method and setting. In cells and extracts the contact can be indirect. Some entries that bind do so weakly or less than the wild type.

The chains behind the UniProt entries cited, without tags or fusion partners.
UniProt Q86TB3: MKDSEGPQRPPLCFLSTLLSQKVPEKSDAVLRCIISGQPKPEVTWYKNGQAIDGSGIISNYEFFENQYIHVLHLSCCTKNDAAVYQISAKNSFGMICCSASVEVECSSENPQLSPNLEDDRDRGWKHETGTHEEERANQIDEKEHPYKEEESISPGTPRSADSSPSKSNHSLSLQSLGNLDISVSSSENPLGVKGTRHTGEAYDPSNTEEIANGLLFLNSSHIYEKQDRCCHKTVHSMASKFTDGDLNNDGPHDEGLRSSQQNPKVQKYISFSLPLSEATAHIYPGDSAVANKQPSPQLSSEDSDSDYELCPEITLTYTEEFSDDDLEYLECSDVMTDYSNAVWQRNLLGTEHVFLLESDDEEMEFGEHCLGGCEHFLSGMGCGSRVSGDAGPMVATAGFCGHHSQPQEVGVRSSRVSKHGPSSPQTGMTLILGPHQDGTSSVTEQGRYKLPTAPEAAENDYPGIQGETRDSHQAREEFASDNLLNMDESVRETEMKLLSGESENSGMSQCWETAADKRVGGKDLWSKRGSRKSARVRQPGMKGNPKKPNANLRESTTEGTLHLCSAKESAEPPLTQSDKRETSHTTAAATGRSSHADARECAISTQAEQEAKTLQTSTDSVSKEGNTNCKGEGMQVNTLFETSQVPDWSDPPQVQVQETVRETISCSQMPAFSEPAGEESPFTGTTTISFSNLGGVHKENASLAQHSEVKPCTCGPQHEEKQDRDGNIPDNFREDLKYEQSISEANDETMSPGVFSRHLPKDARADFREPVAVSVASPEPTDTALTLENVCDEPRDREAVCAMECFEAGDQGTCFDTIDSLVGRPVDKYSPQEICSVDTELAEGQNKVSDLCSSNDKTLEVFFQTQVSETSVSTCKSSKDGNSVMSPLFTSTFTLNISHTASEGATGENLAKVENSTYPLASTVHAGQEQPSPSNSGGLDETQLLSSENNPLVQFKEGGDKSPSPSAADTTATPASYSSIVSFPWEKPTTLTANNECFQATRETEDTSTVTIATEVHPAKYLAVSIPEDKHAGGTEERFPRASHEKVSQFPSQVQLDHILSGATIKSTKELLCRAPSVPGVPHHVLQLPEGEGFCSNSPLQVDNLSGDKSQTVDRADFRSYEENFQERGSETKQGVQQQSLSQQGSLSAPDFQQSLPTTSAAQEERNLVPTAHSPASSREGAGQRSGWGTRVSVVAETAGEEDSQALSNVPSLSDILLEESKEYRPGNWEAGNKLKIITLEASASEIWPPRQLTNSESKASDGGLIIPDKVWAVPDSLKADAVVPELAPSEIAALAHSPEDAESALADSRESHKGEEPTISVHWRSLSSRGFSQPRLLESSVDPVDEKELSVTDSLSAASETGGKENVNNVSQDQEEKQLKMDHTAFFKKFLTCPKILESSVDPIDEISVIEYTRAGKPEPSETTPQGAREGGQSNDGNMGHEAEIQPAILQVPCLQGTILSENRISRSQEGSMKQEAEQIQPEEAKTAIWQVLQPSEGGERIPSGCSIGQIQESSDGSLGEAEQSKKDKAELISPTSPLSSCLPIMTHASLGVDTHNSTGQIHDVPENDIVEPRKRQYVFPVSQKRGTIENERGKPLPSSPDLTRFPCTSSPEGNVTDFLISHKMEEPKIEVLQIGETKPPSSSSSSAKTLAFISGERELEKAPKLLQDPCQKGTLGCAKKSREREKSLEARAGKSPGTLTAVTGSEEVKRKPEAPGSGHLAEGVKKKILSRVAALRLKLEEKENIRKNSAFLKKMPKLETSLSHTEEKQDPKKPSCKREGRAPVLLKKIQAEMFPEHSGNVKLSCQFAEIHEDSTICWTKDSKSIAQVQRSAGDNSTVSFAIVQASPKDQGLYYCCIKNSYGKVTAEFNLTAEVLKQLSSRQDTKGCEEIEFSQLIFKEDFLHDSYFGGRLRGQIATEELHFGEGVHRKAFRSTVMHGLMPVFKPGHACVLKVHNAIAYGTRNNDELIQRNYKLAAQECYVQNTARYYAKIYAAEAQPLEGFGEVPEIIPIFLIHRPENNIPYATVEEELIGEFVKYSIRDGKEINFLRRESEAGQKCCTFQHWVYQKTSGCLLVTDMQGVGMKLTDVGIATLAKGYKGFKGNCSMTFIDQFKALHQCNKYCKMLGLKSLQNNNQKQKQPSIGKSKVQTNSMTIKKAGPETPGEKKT

Biological target: T1, DEP domain containing 1A (DEPDC1A) (UniProt Q5TB30)
T1 sequence: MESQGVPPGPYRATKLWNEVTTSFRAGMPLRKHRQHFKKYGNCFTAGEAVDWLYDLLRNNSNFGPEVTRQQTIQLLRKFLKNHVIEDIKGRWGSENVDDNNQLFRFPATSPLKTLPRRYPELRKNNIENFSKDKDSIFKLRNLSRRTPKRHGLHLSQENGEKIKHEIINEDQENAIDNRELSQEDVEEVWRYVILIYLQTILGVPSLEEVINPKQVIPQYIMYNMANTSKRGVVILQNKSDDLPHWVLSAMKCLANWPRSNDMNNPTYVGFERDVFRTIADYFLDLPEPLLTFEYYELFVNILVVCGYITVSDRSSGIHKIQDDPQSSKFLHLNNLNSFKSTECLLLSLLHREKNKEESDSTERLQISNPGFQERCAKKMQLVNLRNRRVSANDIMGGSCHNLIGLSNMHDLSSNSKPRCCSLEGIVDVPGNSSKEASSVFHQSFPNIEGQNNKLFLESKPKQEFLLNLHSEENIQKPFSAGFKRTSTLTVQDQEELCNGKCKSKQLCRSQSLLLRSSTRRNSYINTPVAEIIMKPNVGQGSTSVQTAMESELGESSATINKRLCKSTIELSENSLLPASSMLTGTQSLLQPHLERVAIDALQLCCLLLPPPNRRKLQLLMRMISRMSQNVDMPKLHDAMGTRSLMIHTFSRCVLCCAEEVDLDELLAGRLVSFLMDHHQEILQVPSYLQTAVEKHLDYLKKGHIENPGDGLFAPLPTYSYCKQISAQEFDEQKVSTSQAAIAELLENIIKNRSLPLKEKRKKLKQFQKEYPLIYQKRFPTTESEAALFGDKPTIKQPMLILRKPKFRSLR
Test: co-IP; co-immunoprecipitation; cells, bait, antibodies and buffer not told

binding: binds
Substance: Alpha protein kinase 2 (ALPK2) (from UniProt Q86TB3 1-2170)
